Among the data in PMC12757297 are binding values, retold here.

Sequences of proteins named here, by UniProt entry; tags and fusion partners are left off.
UniProt Q07955: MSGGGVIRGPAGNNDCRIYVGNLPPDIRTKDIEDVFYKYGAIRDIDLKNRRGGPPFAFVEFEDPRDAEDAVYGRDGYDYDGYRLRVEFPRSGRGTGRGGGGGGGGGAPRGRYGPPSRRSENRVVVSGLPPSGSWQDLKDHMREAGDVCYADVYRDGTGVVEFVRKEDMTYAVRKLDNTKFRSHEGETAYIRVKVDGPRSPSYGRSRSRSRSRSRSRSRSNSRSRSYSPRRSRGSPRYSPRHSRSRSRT
UniProt Q9UQ35: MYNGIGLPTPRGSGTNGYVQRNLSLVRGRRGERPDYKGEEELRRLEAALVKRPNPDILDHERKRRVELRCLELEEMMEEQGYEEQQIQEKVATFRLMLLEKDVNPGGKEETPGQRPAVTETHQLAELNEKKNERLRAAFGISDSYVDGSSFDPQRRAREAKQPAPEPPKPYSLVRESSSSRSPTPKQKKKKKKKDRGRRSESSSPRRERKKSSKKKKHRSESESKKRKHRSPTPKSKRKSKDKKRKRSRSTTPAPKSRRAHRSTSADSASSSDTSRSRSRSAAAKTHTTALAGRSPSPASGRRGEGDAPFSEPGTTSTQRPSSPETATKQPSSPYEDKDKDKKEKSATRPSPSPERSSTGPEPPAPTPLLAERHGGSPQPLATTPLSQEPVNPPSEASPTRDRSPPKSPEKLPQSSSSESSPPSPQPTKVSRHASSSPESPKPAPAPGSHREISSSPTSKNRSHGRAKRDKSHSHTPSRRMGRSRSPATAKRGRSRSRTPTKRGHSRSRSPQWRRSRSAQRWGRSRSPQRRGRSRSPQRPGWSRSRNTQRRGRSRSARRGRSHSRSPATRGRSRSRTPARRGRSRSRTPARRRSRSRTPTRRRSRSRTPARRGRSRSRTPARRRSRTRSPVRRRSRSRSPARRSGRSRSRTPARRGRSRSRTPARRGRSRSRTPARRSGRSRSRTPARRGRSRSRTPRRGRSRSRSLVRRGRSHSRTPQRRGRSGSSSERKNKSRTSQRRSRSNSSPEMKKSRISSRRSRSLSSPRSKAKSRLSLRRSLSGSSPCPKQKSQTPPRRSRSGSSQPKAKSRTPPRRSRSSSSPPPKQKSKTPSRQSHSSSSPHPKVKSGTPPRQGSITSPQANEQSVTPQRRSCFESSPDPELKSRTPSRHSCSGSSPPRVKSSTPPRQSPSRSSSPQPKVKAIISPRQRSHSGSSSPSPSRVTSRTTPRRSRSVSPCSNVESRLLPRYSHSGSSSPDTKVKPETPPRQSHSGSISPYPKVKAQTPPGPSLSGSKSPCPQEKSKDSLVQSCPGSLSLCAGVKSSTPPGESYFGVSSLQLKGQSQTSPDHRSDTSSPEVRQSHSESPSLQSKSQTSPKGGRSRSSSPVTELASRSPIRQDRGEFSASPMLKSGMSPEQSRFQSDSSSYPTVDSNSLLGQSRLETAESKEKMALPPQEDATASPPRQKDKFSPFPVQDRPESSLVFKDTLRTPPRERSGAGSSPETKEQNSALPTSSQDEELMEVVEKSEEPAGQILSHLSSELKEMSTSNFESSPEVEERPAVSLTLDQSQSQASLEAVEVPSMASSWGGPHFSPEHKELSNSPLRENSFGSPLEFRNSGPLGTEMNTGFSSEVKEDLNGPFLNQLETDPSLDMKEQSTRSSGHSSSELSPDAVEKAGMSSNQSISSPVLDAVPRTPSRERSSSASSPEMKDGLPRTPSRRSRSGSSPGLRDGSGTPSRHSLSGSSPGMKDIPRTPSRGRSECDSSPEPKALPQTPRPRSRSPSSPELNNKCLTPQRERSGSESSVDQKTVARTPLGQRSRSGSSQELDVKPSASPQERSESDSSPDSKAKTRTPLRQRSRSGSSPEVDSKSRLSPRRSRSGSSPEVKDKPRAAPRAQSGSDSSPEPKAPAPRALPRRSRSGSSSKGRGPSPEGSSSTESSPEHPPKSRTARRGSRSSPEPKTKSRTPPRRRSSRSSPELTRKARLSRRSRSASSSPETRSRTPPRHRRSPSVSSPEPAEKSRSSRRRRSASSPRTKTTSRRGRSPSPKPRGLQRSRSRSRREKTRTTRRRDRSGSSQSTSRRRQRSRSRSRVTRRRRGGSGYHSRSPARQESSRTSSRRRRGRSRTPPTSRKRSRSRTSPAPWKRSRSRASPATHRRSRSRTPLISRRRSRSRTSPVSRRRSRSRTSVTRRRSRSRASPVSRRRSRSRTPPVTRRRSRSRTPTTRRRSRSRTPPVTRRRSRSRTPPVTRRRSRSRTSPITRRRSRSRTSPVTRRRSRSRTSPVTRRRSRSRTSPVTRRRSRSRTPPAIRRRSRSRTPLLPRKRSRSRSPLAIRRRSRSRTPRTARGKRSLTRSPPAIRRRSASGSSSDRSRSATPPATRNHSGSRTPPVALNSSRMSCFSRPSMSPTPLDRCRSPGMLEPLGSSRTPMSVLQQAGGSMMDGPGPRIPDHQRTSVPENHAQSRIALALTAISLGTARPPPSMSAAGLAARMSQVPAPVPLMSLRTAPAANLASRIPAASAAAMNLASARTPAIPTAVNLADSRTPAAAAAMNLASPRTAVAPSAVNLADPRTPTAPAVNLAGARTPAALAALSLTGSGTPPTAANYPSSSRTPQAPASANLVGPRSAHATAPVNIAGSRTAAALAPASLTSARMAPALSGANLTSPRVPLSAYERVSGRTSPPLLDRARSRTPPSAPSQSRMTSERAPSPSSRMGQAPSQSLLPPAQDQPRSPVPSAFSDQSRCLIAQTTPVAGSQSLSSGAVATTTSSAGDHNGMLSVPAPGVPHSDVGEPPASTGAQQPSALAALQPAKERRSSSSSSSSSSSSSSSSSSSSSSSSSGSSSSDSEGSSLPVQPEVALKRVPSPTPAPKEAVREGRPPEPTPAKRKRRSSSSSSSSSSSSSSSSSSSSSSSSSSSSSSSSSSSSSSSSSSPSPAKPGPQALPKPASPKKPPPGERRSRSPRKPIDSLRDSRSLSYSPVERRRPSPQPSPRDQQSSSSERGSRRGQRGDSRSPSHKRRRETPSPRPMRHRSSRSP
UniProt Q9BUQ8: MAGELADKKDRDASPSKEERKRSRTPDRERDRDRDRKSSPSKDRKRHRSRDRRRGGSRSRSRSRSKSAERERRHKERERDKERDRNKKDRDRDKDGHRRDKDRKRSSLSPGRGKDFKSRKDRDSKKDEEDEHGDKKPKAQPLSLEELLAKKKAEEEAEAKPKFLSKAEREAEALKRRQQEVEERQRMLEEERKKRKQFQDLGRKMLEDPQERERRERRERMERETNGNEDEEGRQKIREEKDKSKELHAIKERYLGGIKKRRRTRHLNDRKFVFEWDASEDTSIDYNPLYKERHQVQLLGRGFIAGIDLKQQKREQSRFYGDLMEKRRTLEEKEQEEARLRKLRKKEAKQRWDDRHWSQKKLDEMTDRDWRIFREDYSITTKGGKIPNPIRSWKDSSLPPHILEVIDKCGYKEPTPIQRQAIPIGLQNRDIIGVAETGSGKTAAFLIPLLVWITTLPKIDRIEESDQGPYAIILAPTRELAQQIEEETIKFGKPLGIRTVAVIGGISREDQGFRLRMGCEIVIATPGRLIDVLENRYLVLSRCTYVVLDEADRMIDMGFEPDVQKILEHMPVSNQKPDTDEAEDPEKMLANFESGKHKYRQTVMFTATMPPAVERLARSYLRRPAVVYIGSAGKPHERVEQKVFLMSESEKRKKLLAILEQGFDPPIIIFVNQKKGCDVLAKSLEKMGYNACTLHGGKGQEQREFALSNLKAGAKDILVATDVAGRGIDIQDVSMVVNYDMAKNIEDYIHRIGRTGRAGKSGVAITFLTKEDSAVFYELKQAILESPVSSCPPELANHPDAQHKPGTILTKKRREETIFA
UniProt P18583: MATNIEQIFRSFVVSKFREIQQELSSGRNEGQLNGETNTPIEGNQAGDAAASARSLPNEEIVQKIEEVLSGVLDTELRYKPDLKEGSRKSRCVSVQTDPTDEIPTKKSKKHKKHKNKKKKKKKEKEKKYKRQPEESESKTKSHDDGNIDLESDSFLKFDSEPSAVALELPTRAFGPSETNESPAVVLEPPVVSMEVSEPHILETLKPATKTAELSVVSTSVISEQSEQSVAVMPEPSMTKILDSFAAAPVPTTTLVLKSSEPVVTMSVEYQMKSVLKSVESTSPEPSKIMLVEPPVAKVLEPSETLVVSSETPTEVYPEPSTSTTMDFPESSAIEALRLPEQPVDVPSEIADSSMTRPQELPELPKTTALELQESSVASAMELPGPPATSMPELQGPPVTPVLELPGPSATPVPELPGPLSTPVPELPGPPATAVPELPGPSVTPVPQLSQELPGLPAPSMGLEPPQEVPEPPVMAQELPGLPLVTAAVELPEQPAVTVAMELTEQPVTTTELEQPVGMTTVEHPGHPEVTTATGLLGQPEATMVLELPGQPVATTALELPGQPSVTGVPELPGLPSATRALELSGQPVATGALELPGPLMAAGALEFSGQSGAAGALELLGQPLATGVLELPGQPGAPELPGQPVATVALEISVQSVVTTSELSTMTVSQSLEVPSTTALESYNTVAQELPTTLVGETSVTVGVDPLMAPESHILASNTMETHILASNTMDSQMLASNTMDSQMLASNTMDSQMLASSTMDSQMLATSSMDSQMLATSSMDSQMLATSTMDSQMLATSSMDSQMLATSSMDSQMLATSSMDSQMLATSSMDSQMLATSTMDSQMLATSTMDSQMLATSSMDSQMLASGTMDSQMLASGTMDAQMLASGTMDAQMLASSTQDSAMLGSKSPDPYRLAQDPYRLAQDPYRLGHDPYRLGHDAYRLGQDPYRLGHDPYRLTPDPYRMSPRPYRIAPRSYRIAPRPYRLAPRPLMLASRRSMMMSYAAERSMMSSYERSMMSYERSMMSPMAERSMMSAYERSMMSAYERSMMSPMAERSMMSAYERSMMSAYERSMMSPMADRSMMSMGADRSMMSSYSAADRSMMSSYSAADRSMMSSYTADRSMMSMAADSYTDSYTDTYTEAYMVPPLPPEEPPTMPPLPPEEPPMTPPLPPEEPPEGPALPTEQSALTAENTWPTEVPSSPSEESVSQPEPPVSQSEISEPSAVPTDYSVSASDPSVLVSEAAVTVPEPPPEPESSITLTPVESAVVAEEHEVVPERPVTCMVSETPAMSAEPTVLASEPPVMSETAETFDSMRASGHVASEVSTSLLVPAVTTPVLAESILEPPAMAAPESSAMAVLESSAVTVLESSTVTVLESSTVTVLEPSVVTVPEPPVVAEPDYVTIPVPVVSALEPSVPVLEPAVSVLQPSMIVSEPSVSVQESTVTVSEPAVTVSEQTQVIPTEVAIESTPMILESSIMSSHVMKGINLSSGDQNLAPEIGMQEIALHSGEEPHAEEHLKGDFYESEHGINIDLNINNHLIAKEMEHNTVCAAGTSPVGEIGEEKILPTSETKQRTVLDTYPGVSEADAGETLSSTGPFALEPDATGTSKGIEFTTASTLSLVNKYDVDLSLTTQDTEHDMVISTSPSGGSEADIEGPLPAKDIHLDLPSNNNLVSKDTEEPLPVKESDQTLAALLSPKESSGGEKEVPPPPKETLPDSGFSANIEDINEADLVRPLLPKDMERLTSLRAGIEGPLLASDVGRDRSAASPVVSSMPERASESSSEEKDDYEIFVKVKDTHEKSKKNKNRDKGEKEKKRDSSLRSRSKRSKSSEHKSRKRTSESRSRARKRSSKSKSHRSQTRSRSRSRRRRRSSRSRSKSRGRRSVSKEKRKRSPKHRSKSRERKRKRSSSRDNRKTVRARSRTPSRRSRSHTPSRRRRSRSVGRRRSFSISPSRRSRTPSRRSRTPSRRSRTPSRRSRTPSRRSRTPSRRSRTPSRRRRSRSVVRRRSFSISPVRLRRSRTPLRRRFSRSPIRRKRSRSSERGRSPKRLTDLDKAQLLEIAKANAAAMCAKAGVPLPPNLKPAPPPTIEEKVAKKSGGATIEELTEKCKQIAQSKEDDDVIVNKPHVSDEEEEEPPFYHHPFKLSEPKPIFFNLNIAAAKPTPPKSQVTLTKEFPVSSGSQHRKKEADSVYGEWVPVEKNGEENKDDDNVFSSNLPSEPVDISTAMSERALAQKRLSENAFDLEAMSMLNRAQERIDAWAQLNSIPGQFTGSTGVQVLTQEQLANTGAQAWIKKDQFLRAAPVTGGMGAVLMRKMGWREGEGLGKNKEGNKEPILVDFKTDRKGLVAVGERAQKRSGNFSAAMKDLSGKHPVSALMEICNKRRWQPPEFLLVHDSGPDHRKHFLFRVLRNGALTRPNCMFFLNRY

Results are given in words; binding and its absence hold for the method and conditions named. Binding seen in cells or lysates may run through a third protein. A yes stands for co-enrichment or nearness to the bait. Other partners may have been found. No binding means not detected with the bait. For some assays here: Where a sequence is shown, tags or fusion partners need not be part of it.

Assay in all cases: proximity labelling; split-APEX: optimal AP/EX combination of SRSF1 with a helicase, TNPO3 or SRRM2 in HEK293T cells; biotinylated proteins recovered on Neutravidin resin, MS/MS; three experiments, proteins found in at least two replicates listed, ranked by total spectral count
The target of test [1] is SRSF1 fused to the AP or the EX fragment of APEX2 (split-APEX fusion) (UniProt Q07955).
Test [2] deals with SRRM2 fused to the AP or the EX fragment of APEX2 (human) (UniProt Q9UQ35).
Test [3] addresses DDX23 fused to the AP or the EX fragment of APEX2 (UniProt Q9BUQ8).

SON (from UniProt P18583 1-2426): the binding result in test [1] and in test [2] was “no binding” throughout.

For “DDX23 fused to the AP or the EX fragment of APEX2 (from UniProt Q9BUQ8 1-820)”, the binding entry in test [1] was “binds”.

B1: DHX8 fused to the AP or the EX fragment of APEX2 (protein, UniProt Q14562 1-1220)
chain: MAVAVAMAGALIGSEPGPAEELAKLEYLSLVSKVCTELDNHLGINDKDLAEFVISLAEKNTTFDTFKASLVKNGAEFTDSLISNLLRLIQTMRPPAKPSTSKDPVVKPKTEKEKLKELFPVLCQPDNPSVRTMLDEDDVKVAVDVLKELEALMPSAAGQEKQRDAEHRDRTKKKKRSRSRDRNRDRDRDRERNRDRDHKRRHRSRSRSRSRTRERNKVKSRYRSRSRSQSPPKDRKDRDKYGERNLDRWRDKHVDRPPPEEPTIGDIYNGKVTSIMQFGCFVQLEGLRKRWEGLVHISELRREGRVANVADVVSKGQRVKVKVLSFTGTKTSLSMKDVDQETGEDLNPNRRRNLVGETNEETSMRNPDRPTHLSLVSAPEVEDDSLERKRLTRISDPEKWEIKQMIAANVLSKEEFPDFDEETGILPKVDDEEDEDLEIELVEEEPPFLRGHTKQSMDMSPIKIVKNPDGSLSQAAMMQSALAKERRELKQAQREAEMDSIPMGLNKHWVDPLPDAEGRQIAANMRGIGMMPNDIPEWKKHAFGGNKASYGKKTQMSILEQRESLPIYKLKEQLVQAVHDNQILIVIGETGSGKTTQITQYLAEAGYTSRGKIGCTQPRRVAAMSVAKRVSEEFGCCLGQEVGYTIRFEDCTSPETVIKYMTDGMLLRECLIDPDLTQYAIIMLDEAHERTIHTDVLFGLLKKTVQKRQDMKLIVTSATLDAVKFSQYFYEAPIFTIPGRTYPVEILYTKEPETDYLDASLITVMQIHLTEPPGDILVFLTGQEEIDTACEILYERMKSLGPDVPELIILPVYSALPSEMQTRIFDPAPPGSRKVVIATNIAETSLTIDGIYYVVDPGFVKQKVYNSKTGIDQLVVTPISQAQAKQRAGRAGRTGPGKCYRLYTERAYRDEMLTTNVPEIQRTNLASTVLSLKAMGINDLLSFDFMDAPPMETLITAMEQLYTLGALDDEGLLTRLGRRMAEFPLEPMLCKMLIMSVHLGCSEEMLTIVSMLSVQNVFYRPKDKQALADQKKAKFHQTEGDHLTLLAVYNSWKNNKFSNPWCYENFIQARSLRRAQDIRKQMLGIMDRHKLDVVSCGKSTVRVQKAICSGFFRNAAKKDPQEGYRTLIDQQVVYIHPSSALFNRQPEWVVYHELVLTTKEYMREVTTIDPRWLVEFAPAFFKVSDPTKLSKQKKQQRLEPLYNRYEEPNAWRISRAFRRR
Regarding B1, the binding entry in test [1] is listed as “binds”.

B2: DDX46 fused to the AP or the EX fragment of APEX2 (protein, UniProt Q7L014 1-1031)
chain: MGRESRHYRKRSASRGRSGSRSRSRSPSDKRSKRGDDRRSRSRDRDRRRERSRSRDKRRSRSRDRKRLRRSRSRERDRSRERRRSRSRDRRRSRSRSRGRRSRSSSPGNKSKKTENRSRSKEKTDGGESSKEKKKDKDDKEDEKEKDAGNFDQNKLEEEMRKRKERVEKWREEQRKKAMENIGELKKEIEEMKQGKKWSLEDDDDDEDDPAEAEKEGNEMEGEELDPLDAYMEEVKEEVKKFNMRSVKGGGGNEKKSGPTVTKVVTVVTTKKAVVDSDKKKGELMENDQDAMEYSSEEEEVDLQTALTGYQTKQRKLLEPVDHGKIEYEPFRKNFYVEVPELAKMSQEEVNVFRLEMEGITVKGKGCPKPIKSWVQCGISMKILNSLKKHGYEKPTPIQTQAIPAIMSGRDLIGIAKTGSGKTIAFLLPMFRHIMDQRSLEEGEGPIAVIMTPTRELALQITKECKKFSKTLGLRVVCVYGGTGISEQIAELKRGAEIIVCTPGRMIDMLAANSGRVTNLRRVTYVVLDEADRMFDMGFEPQVMRIVDNVRPDRQTVMFSATFPRAMEALARRILSKPIEVQVGGRSVVCSDVEQQVIVIEEEKKFLKLLELLGHYQESGSVIIFVDKQEHADGLLKDLMRASYPCMSLHGGIDQYDRDSIINDFKNGTCKLLVATSVAARGLDVKHLILVVNYSCPNHYEDYVHRAGRTGRAGNKGYAYTFITEDQARYAGDIIKALELSGTAVPPDLEKLWSDFKDQQKAEGKIIKKSSGFSGKGFKFDETEQALANERKKLQKAALGLQDSDDEDAAVDIDEQIESMFNSKKRVKDMAAPGTSSVPAPTAGNAEKLEIAKRLALRINAQKNLGIESQDVMQQATNAILRGGTILAPTVSAKTIAEQLAEKINAKLNYVPLEKQEEERQDGGQNESFKRYEEELEINDFPQTARWKVTSKEALQRISEYSEAAITIRGTYFPPGKEPKEGERKIYLAIESANELAVQKAKAEITRLIKEELIRLQNSYQPTNKGRYKVL
For B2, the binding entry in test [1] is on record as “binds”.

B3: DDX46, endogenous (protein, UniProt Q7L014 1-1031)
chain: MGRESRHYRKRSASRGRSGSRSRSRSPSDKRSKRGDDRRSRSRDRDRRRERSRSRDKRRSRSRDRKRLRRSRSRERDRSRERRRSRSRDRRRSRSRSRGRRSRSSSPGNKSKKTENRSRSKEKTDGGESSKEKKKDKDDKEDEKEKDAGNFDQNKLEEEMRKRKERVEKWREEQRKKAMENIGELKKEIEEMKQGKKWSLEDDDDDEDDPAEAEKEGNEMEGEELDPLDAYMEEVKEEVKKFNMRSVKGGGGNEKKSGPTVTKVVTVVTTKKAVVDSDKKKGELMENDQDAMEYSSEEEEVDLQTALTGYQTKQRKLLEPVDHGKIEYEPFRKNFYVEVPELAKMSQEEVNVFRLEMEGITVKGKGCPKPIKSWVQCGISMKILNSLKKHGYEKPTPIQTQAIPAIMSGRDLIGIAKTGSGKTIAFLLPMFRHIMDQRSLEEGEGPIAVIMTPTRELALQITKECKKFSKTLGLRVVCVYGGTGISEQIAELKRGAEIIVCTPGRMIDMLAANSGRVTNLRRVTYVVLDEADRMFDMGFEPQVMRIVDNVRPDRQTVMFSATFPRAMEALARRILSKPIEVQVGGRSVVCSDVEQQVIVIEEEKKFLKLLELLGHYQESGSVIIFVDKQEHADGLLKDLMRASYPCMSLHGGIDQYDRDSIINDFKNGTCKLLVATSVAARGLDVKHLILVVNYSCPNHYEDYVHRAGRTGRAGNKGYAYTFITEDQARYAGDIIKALELSGTAVPPDLEKLWSDFKDQQKAEGKIIKKSSGFSGKGFKFDETEQALANERKKLQKAALGLQDSDDEDAAVDIDEQIESMFNSKKRVKDMAAPGTSSVPAPTAGNAEKLEIAKRLALRINAQKNLGIESQDVMQQATNAILRGGTILAPTVSAKTIAEQLAEKINAKLNYVPLEKQEEERQDGGQNESFKRYEEELEINDFPQTARWKVTSKEALQRISEYSEAAITIRGTYFPPGKEPKEGERKIYLAIESANELAVQKAKAEITRLIKEELIRLQNSYQPTNKGRYKVL
Consider B3, for which the binding result in test [3] is “no binding”.

B4: DHX16 fused to the AP or the EX fragment of APEX2 (protein, UniProt O60231 1-1041)
chain: MATPAGLERWVQDELHSVLGLSERHVAQFLIGTAQRCTSAEEFVQRLRDTDTLDLSGPARDFALRLWNKVPRKAVVEKPARAAEREARALLEKNRSYRLLEDSEESSEETVSRAGSSLQKKRKKRKHLRKKREEEEEEEASEKGKKKTGGSKQQTEKPESEDEWERTERERLQDLEERDAFAERVRQRDKDRTRNVLERSDKKAYEEAQKRLKMAEEDRKAMVPELRKKSRREYLAKREREKLEDLEAELADEEFLFGDVELSRHERQELKYKRRVRDLAREYRAAGEQEKLEATNRYHMPKETRGQPARAVDLVEEESGAPGEEQRRWEEARLGAASLKFGARDAASQEPKYQLVLEEEETIEFVRATQLQGDEEPSAPPTSTQAQQKESIQAVRRSLPVFPFREELLAAIANHQVLIIEGETGSGKTTQIPQYLFEEGYTNKGMKIACTQPRRVAAMSVAARVAREMGVKLGNEVGYSIRFEDCTSERTVLRYMTDGMLLREFLSEPDLASYSVVMVDEAHERTLHTDILFGLIKDVARFRPELKVLVASATMDTARFSTFFDDAPVFRIPGRRFPVDIFYTKAPEADYLEACVVSVLQIHVTQPPGDILVFLTGQEEIEAACEMLQDRCRRLGSKIRELLVLPIYANLPSDMQARIFQPTPPGARKVVVATNIAETSLTIEGIIYVLDPGFCKQKSYNPRTGMESLTVTPCSKASANQRAGRAGRVAAGKCFRLYTAWAYQHELEETTVPEIQRTSLGNVVLLLKSLGIHDLMHFDFLDPPPYETLLLALEQLYALGALNHLGELTTSGRKMAELPVDPMLSKMILASEKYSCSEEILTVAAMLSVNNSIFYRPKDKVVHADNARVNFFLPGGDHLVLLNVYTQWAESGYSSQWCYENFVQFRSMRRARDVREQLEGLLERVEVGLSSCQGDYIRVRKAITAGYFYHTARLTRSGYRTVKQQQTVFIHPNSSLFEQQPRWLLYHELVLTTKEFMRQVLEIESSWLLEVAPHYYKAKELEDPHAKKMPKKIGKTREELG
On to B4, for which the binding entry in test [1] is “binds”.

B5: DHX38 fused to the AP or the EX fragment of APEX2 (protein, UniProt Q92620 1-1227)
chain: MGDTSEDASIHRLEGTDLDCQVGGLICKSKSAASEQHVFKAPAPRPSLLGLDLLASLKRREREEKDDGEDKKKSKVSSYKDWEESKDDQKDAEEEGGDQAGQNIRKDRHYRSARVETPSHPGGVSEEFWERSRQRERERREHGVYASSKEEKDWKKEKSRDRDYDRKRDRDERDRSRHSSRSERDGGSERSSRRNEPESPRHRPKDAATPSRSTWEEEDSGYGSSRRSQWESPSPTPSYRDSERSHRLSTRDRDRSVRGKYSDDTPLPTPSYKYNEWADDRRHLGSTPRLSRGRGRREEGEEGISFDTEEERQQWEDDQRQADRDWYMMDEGYDEFHNPLAYSSEDYVRRREQHLHKQKQKRISAQRRQINEDNERWETNRMLTSGVVHRLEVDEDFEEDNAAKVHLMVHNLVPPFLDGRIVFTKQPEPVIPVKDATSDLAIIARKGSQTVRKHREQKERKKAQHKHWELAGTKLGDIMGVKKEEEPDKAVTEDGKVDYRTEQKFADHMKRKSEASSEFAKKKSILEQRQYLPIFAVQQELLTIIRDNSIVIVVGETGSGKTTQLTQYLHEDGYTDYGMIGCTQPRRVAAMSVAKRVSEEMGGNLGEEVGYAIRFEDCTSENTLIKYMTDGILLRESLREADLDHYSAIIMDEAHERSLNTDVLFGLLREVVARRSDLKLIVTSATMDAEKFAAFFGNVPIFHIPGRTFPVDILFSKTPQEDYVEAAVKQSLQVHLSGAPGDILIFMPGQEDIEVTSDQIVEHLEELENAPALAVLPIYSQLPSDLQAKIFQKAPDGVRKCIVATNIAETSLTVDGIMFVIDSGYCKLKVFNPRIGMDALQIYPISQANANQRSGRAGRTGPGQCFRLYTQSAYKNELLTTTVPEIQRTNLANVVLLLKSLGVQDLLQFHFMDPPPEDNMLNSMYQLWILGALDNTGGLTSTGRLMVEFPLDPALSKMLIVSCDMGCSSEILLIVSMLSVPAIFYRPKGREEESDQIREKFAVPESDHLTYLNVYLQWKNNNYSTIWCNDHFIHAKAMRKVREVRAQLKDIMVQQRMSLASCGTDWDIVRKCICAAYFHQAAKLKGIGEYVNIRTGMPCHLHPTSSLFGMGYTPDYIVYHELVMTTKEYMQCVTAVDGEWLAELGPMFYSVKQAGKSRQENRRRAKEEASAMEEEMALAEEQLRARRQEQEKRSPLGSVRSTKIYTPGRKEQGEPMTPRRTPARFGL
With B5, the binding result in test [1] is listed as “binds”.
